Test results taken from PMC3460906.
Results are given in words; binding and its absence hold for the method and conditions named. In cells and extracts the contact can be indirect. Binding can be weak; no strength is given.

By UniProt entry, the sequences of proteins in these tests, tags left out. Where a name states a change or a piece, a line headed by the entry shows the natural chain unless it says otherwise.
UniProt Q03708: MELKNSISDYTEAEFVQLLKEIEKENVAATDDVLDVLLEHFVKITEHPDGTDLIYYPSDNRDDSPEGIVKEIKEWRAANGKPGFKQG
UniProt P00646: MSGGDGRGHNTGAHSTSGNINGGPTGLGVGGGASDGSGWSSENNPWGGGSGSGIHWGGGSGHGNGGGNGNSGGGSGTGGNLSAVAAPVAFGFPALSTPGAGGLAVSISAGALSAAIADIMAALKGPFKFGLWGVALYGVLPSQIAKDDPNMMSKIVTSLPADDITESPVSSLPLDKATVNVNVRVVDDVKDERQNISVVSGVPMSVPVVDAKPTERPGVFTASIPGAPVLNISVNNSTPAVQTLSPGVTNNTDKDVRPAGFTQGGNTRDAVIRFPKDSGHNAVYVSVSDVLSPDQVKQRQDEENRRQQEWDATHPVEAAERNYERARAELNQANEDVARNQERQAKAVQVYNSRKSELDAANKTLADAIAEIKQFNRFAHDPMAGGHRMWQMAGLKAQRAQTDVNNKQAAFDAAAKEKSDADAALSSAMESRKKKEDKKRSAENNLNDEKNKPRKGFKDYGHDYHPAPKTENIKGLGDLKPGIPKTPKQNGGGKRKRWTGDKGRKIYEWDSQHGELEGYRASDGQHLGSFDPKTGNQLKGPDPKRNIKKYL
UniProt Q47112: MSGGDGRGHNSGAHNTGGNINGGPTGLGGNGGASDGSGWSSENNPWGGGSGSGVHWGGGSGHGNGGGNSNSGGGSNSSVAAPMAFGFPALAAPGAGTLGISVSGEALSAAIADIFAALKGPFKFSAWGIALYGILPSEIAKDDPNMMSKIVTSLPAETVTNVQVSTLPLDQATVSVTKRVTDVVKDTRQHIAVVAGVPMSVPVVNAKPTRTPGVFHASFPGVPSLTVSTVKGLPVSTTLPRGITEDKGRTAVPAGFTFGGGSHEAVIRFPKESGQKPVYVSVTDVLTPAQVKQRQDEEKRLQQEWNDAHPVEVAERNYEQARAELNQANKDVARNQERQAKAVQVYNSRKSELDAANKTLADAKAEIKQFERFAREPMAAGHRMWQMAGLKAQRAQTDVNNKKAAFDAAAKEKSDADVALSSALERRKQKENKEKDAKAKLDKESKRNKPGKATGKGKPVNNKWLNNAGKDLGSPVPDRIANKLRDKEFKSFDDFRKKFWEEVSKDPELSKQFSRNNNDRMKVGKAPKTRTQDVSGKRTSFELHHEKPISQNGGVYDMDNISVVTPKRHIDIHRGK

Tests used:
[1] = molecular target: T1, cognate immunity protein of the rRNase E3 (E. coli) (UniProt P02984); assay: co-purification (metal chelate ch)
T1 sequence: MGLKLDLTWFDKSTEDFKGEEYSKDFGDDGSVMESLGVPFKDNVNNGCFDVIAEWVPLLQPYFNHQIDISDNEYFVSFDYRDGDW

[2] = molecular target: Im7, cognate immunity protein of the colicin E7 DNase (E. coli) (UniProt Q03708); assay: co-purification (metal chelate chromatography); untagged nuclease domain co-expressed in E. coli BL21(DE3) with its cognate immunity protein carrying a C-terminal His-tag; complex held on and purified from the metal chelate column; immunity protein removed afterwards only under denaturing or acid conditions

Row | Substance | binding [1] | binding [2]
1 | colicin E3 ribosomal RNase domain (from UniProt P00646) (domain or fragment) | binds | –
2 | colicin E7 DNase domain (from UniProt Q47112) (domain or fragment) | – | binds
